{"source": "patent US8663645B2", "about": "“Use of native peptides and their optimized derivatives for vaccination” (Vaxon Biotech, priority 2005, dated 2014)", "key": {"[1]": {"tested_on": "TERT-transfected N418 cells", "experiment": "51Cr release cytotoxicity assay, N418 fibroblasts", "assay_type": "cell-based", "details": "patient #4 TERT572Y tetramer-positive cells, 4 h 51Cr release"}, "[2]": {"tested_on": "RMAS/HHD cells pulsed with TERT572", "experiment": "Avidity for TERT572 of CTL after in vivo prime and boost", "details": "individual HHD mice, 1st vaccination TERT572Y, 2nd vaccination the labelled peptide", "experimental": "HHD mice were injected subcutaneously with 100 μg of nonamer peptides emulsified in incomplete Freund's adjuvant (IFA) in the presence of 150 μg of the I-Ab restricted HBVcore128 T-helper epitope. Spleen cells (5×10^7 cells in 10 ml) from immunized HHD mice were stimulated in vitro with peptide (10 μM) in RPMI1640+10% FCS for five days. The CTL lines were established by weekly re-stimulation in vitro with irradiated spleen cells in the presence of peptide and 50 U/ml IL-2 (Proleukin, Chiron Corp., Emeryville, Calif.).\nMurine RMAS/HHD cells were used as targets for cytotoxicity as described (Tourdot, Scardino et al. 2000). Briefly, 2.5×10^3 51Cr-labeled targets were pulsed with increasing doses (0.00001-10 μM) of peptides at 37° C. for 60 min. Effector cells in 100 μl were then added and incubated at 37° C. for 4 hours. After incubation, 100 μl of supernatant were collected and radioactivity was measured in a gamma counter. The specific lysis was determined as: Lysis=(Experimental Release−Spontaneous Release)/(Maximal Release−Spontaneous Release). CTL avidity is defined as the peptide concentration that gives half the maximal lysis. […] In Vivo Tumor Protection Assay\nHHD mice were vaccinated with the optimized cryptic TERT572Y peptide described above. Fifteen days later, they were boosted with either the same optimized or the native cryptic TERT572 peptide. […]"}, "[3]": {"tested_on": "Na8 cells", "experiment": "51Cr release cytotoxicity assay, melanoma cell lines", "assay_type": "cell-based", "details": "patient #4 TERT572Y tetramer-positive cells, 4 h 51Cr release; Na8 vs ME290"}, "[4]": {"tested_on": "TERT572Y-specific CD8 cells", "experiment": "TERT572Y tetramer staining of PBMC of vaccinated patients", "assay_type": "in vivo, human", "details": "for Percentage of tetramer TERT572Y-positive CD8 cells: individual patients"}, "[5]": {"tested_on": "TERT572Y tetramer-positive cells", "experiment": "CD107 and intracellular IFNγ double labeling", "assay_type": "cell-based, human", "details": "patient #4 cells, activation with TERT572Y peptide (10 μM), 6 hours"}, "[6]": {"experiment": "Storage stability of vaccine peptides", "assay_type": "physicochemical", "details": "more than two years of storage at −80° C.", "experimental": "The vaccine consisted of optimized TERT572Y (YLFFYRKSV) (SEQ ID NO:2) and native TERT572 (RLFFYRKSV) (SEQ ID NO:1) peptides emulsified in Montanide ISA51 (Seppic Inc, France). The vaccine peptides were synthesized at the Faculty of Pharmacy, University of Patras (Greece) by means of solid-phase Fmoc/Bu chemistry. Quality assurance studies included confirmation of identity, sterility and purity (>95% for both peptides). […] Each peptide was prepared as a lyophilized powder for reconstitution and dilution in sterile water."}, "[7]": {"tested_on": "patients with advanced cancer", "experiment": "Phase I clinical study: clinical response and survival", "assay_type": "in vivo, human", "design": "key to Clinical response: PD = progressive disease; SD = stable disease"}}, "note": "Where “and” joins values, the source holds several entries; their conditions need not be identical. Equal entries are not always repeated. Part of at least one peptide drawing is inferred or uncertain, most often the ends. No end group written: not given here.", "data": [{"sequence": "YLFFYRKSV [TERT572Y, YLFFYRKSV]", "values": [{"measurement": "killing of N418 fibroblasts by vaccine-induced CTL", "setting": "[1]", "value": "specifically killed TERT-transfected but not untransfected N418 fibroblasts"}, {"measurement": "CTL avidity", "setting": "[2]", "value": "350 nM and 700 nM and 650 nM"}, {"measurement": "killing of tumor cells by vaccine-induced CTL", "setting": "[3]", "value": "killed tumor cells overexpressing TERT (Na8 cells) but not tumor cells expressing TERT at a low level (ME290 cells)"}, {"measurement": "tetramer positive CD8 cells after in vitro stimulation of PBMC", "setting": "[4]; 3 and 14 months after the end of the vaccination protocol, patients #13 and #11", "value": "more than 1.5%"}, {"measurement": "Percentage of tetramer TERT572Y-positive CD8 cells", "setting": "[4]; After the 2nd or 4th injection, stimulated in vitro with 10 μM TERT572Y", "value": "1.14% and 4.00% and 0.36% and 4.20% and 0.42% and 0.98% (2×) and 1.30% and 0.88% and 0.45% and 0.62% and 0.73% and 1.25% and 0.11%"}, {"measurement": "Percentage of tetramer TERT572Y-positive CD8 cells", "setting": "[4]; After the 2nd or 4th injection, unstimulated", "value": "0.11% and 0.05% (2×) and 0.06% (2×) and 0% (4×) and 0.01% and 0.33% and 0.7% and 0.10% and 0.69%"}, {"measurement": "Percentage of tetramer TERT572Y-positive CD8 cells", "setting": "[4]; Post-vaccination, stimulated in vitro with 10 μM TERT572Y", "value": "0.48% (2×) and 0.36% and 0.52%"}, {"measurement": "Percentage of tetramer TERT572Y-positive CD8 cells", "setting": "[4]; Post-vaccination, unstimulated", "value": "0.02% and 0.12% and 0.05% and 0.32%"}, {"measurement": "Percentage of tetramer TERT572Y-positive CD8 cells", "setting": "[4]; Pre-vaccination, PBMC stimulated in vitro with 10 μM TERT572Y for nine days", "value": "0.29% and 0.33% and 1.00% and 0% and 0.01% and 0.14% and 0.11% and 0.04% and 0.03%"}, {"measurement": "vaccinated patients who developed specific T cells / antitumor immunity", "setting": "[4]; advanced cancer patients", "value": "more than 90%"}, {"measurement": "patients with TERT572Y-specific cells detected after in vitro stimulation", "setting": "[4]; of 14 patients, 3 weeks after the 2nd or the 4th injection", "value": 64, "unit": "%"}, {"measurement": "patients with TERT572Y-specific cells detected ex vivo", "setting": "[4]; of 14 vaccinated patients studied", "value": 29, "unit": "%"}, {"measurement": "IFNγ production and CD107a upregulation of purified TERT572Y-specific cells", "setting": "[5]", "value": "produced IFNγ and showed CD107a upregulation"}, {"measurement": "purity or concentration after storage", "setting": "[6]", "value": "No decrease in purity or concentration"}, {"measurement": "median time to tumor progression", "setting": "[7]; 19 patients, range 2.3-11.2", "value": 4.2, "unit": "months"}, {"measurement": "median overall survival", "setting": "[7]; 19 patients, range 4.4-27.6", "value": 15.2, "unit": "months"}, {"measurement": "Survival (months)", "setting": "[7]; individual patients, + as printed", "value": "8.8+ months and 22.8+ months and 5.7 months and 5.3 months and 15.1 months and 12.3 months and 11.1+ months and 4.6 months and 17.5+ months and 11.2+ months and 6.9+ months and 8 months and 10.7+ months and 17+ months and 13.7+ months and 6.4 months and 4.4+ months and 6.1 months and 27.6 months"}, {"measurement": "Clinical response", "setting": "[7]; individual patients, s.c. every 3 weeks, TERT572Y for first 2 and TERT572 for remaining injections, 2-6 mg in Montanide ISA51", "value": "PD (15×) and SD (4×)"}, {"measurement": "patients in whom the disease stabilized", "setting": "[7]; of the 14 patients who completed the vaccination protocol", "value": 29, "unit": "%"}]}]}
